Consider four molecules from doi:10.1101/2023.02.27.530186 (bioRxiv, 2023).

Read-outs that look alike come from different tables or passages of the source. These are yes or no findings as the source states them, for the method shown. In cells and extracts the contact can be indirect. For some of these results: Binding calls can cover weak binding; strength is not graded here. For some of these results: Tags and fused reporters may be left off the sequences shown.

The target of assay [1] is T1, MetK of E. coli, C-terminally Strep-tagged (E. coli) (UniProt P0A817).
T1 sequence: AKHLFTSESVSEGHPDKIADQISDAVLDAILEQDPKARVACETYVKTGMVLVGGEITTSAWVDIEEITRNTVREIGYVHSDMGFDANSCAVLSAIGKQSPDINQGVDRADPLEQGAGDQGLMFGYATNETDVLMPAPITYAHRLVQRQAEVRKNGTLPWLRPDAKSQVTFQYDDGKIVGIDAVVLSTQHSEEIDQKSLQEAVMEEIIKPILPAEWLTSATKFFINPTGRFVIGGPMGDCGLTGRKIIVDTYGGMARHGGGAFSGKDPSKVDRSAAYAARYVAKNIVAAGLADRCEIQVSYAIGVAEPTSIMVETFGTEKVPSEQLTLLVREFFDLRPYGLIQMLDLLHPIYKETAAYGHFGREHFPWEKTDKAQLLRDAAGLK
Nature of the assay: pull-down.

For assay [2], the target named is T3 SAMase E68Q/Q94A (catalytically inactive), C-terminally Strep-tagged (bacteriophage T3) (UniProt P07693). The assay can be described thus: pull-down.
Assay [3] shares this target. The assay can be described thus: pull-down. This is another data set of the same source.
Assay [4] addresses T3 SAMase E68Q/Q94A, C-terminally His6-tagged (bacteriophage T3) (UniProt P07693). Nature of the assay: pull-down.
The target in assay [5] is T3 SAMase T4A, His-tagged (bacteriophage T3) (UniProt P07693). Nature of the assay: pull-down.
The target in assay [6] is T3 SAMase Δ10 (10-amino-acid N-terminal truncation), His-tagged (bacteriophage T3) (UniProt P07693). The assay can be described thus: pull-down.
Assay [7] addresses T3 SAMase I2A/T4S/K5S, His-tagged (bacteriophage T3) (UniProt P07693). Nature of the assay: pull-down.
The target in assay [8] is T3 SAMase Δ5 (5-amino-acid N-terminal truncation), His-tagged (bacteriophage T3) (UniProt P07693). The assay can be described thus: pull-down.
In assay [9] the target is T3 SAMase E68Q/Q94A, C-terminally His6-tagged (bacteriophage T3) (UniProt P07693). The assay can be described thus: SEC. (SEC sorts molecules by how far they enter the pores of the column.)

On to “T3 SAMase E68Q/Q94A, untagged (from UniProt P07693) (enzyme)”, for which the binding entry in [1] was “binds”.

With “transcription termination factor Rho of E. coli, endogenous (from UniProt P0AG30 1-419)”, the binding entry in assay [2] is given as “binds”.

B1: methionine synthase (MetE) of E. coli, endogenous (enzyme, UniProt P25665 1-753)
chain: MTILNHTLGFPRVGLRRELKKAQESYWAGNSTREELLAVGRELRARHWDQQKQAGIDLLPVGDFAWYDHVLTTSLLLGNVPARHQNKDGSVDIDTLFRIGRGRAPTGEPAAAAEMTKWFNTNYHYMVPEFVKGQQFKLTWTQLLDEVDEALALGHKVKPVLLGPVTWLWLGKVKGEQFDRLSLLNDILPVYQQVLAELAKRGIEWVQIDEPALVLELPQAWLDAYKPAYDALQGQVKLLLTTYFEGVTPNLDTITALPVQGLHVDLVHGKDDVAELHKRLPSDWLLSAGLINGRNVWRADLTEKYAQIKDIVGKRDLWVASSCSLLHSPIDLSVETRLDAEVKSWFAFALQKCHELALLRDALNSGDTAALAEWSAPIQARRHSTRVHNPAVEKRLAAITAQDSQRANVYEVRAEAQRARFKLPAWPTTTIGSFPQTTEIRTLRLDFKKGNLDANNYRTGIAEHIKQAIVEQERLGLDVLVHGEAERNDMVEYFGEHLDGFVFTQNGWVQSYGSRCVKPPIVIGDISRPAPITVEWAKYAQSLTDKPVKGMLTGPVTILCWSFPREDVSRETIAKQIALALRDEVADLEAAGIGIIQIDEPALREGLPLRRSDWDAYLQWGVEAFRINAAVAKDDTQIHTHMCYCEFNDIMDSIAALDADVITIETSRSDMELLESFEEFDYPNEIGPGVYDIHSPNVPSVEWIEALLKKAAKRIPAERLWVNPDCGLKTRGWPETRAALANMVQAAQNLRRG
In the case of B1, the binding entry in assay [3] is on record as “binds”.

B2: MetK, SAM synthase (methionine adenosyltransferase) of E. coli, endogenous (enzyme, UniProt P0A817 1-384, looked up)
chain: MAKHLFTSESVSEGHPDKIADQISDAVLDAILEQDPKARVACETYVKTGMVLVGGEITTSAWVDIEEITRNTVREIGYVHSDMGFDANSCAVLSAIGKQSPDINQGVDRADPLEQGAGDQGLMFGYATNETDVLMPAPITYAHRLVQRQAEVRKNGTLPWLRPDAKSQVTFQYDDGKIVGIDAVVLSTQHSEEIDQKSLQEAVMEEIIKPILPAEWLTSATKFFINPTGRFVIGGPMGDCGLTGRKIIVDTYGGMARHGGGAFSGKDPSKVDRSAAYAARYVAKNIVAAGLADRCEIQVSYAIGVAEPTSIMVETFGTEKVPSEQLTLLVREFFDLRPYGLIQMLDLLHPIYKETAAYGHFGREHFPWEKTDKAQLLRDAAGLK
As for B2, the binding result is recorded as “binds” in assay [4]; “binds” in [5]; “no binding” in assay [6]; “binds” in assay [3]; “no binding” in assay [7]; “no binding” in assay [8]. Moreover, the binding entry in [9] is recorded as “binds”.
